# Laboratory results published in publication PMC11990662, “Synthesis and Evaluation of the Antiproliferative Activity of the Derivatives of 3,5-Diaryl-3,4-dihydro-2H-pyrrole-2-carboxylic Acids” (Molecules, 2025).
# How the values were obtained:
# [1] = system: HepG2 (hepatocellular carcinoma); test: MTT antiproliferative assay, HepG2; format: cell-based, human
# Experimental: (§1) Antiproliferative activity of some compounds was evaluated on cell cultures derived from MDA-MB-231 (triple negative human breast carcinoma). […] This finding allowed us to further investigate the antiproliferative activity of selected compounds on additional tumor cell lines. We studied the influence of the stereochemical orientation of the substituents at C2 and C3 in substituted 3,4-dihydro-2H-pyrrole-2-carbonitriles. The antiproliferative activity of single diastereomers of some nitriles 4 and the amide cis-6m were assessed on multiple human cancer cell lines via the MTT assay. For these experiments, the following human cell lines were used: MCF-7 (luminal type A breast carcinoma), MD-MBA-231, H1299 (non-small-cell lung carcinoma cells), A549 (lung alveolar adenocarcinoma), HeLa (cervical cancer), HepG2 (hepatocellular carcinoma), HT-29 (colorectal adenocarcinoma) and PC3 (prostate adenocarcinoma). As a model of normal tissue, we used MCF-10A (non-tumorigenic epithelial cells of mammary gland). Table 5 and Table 6 present the values of concentration that inhibits cell viability to 50% (IC50) and selectivity index (SI = IC50(MCF-10A)/IC50(tumor cell line)).
# (§2) The antiproliferative activity testing was performed on cell cultures from several human cancer cell lines the MTT-dye reduction assay, described by Mosmann. Cell lines were obtained from the American Type Cultures Collection (ATCC, Manassas, VA, USA). In this article we used the following cell lines: MCF-10A (ATCC, CRL-10317™) Non-tumorigenic epithelial cells of mammary gland, MCF-7 (ATCC, HTB-22™) Luminal type A breast carcinoma, MDA-MB-231 (ATCC, HTB-26™) Triple negative breast carcinoma, H1299 (ATCC, CRL-5803™) Non-small-cell lung carcinoma, A549 (ATCC, CRM-CCL-185™) Llung alveolar adenocarcinoma, HeLa (ATCC, CCL-2™) Cervical cancer, Hep G2 (ATCC, HB-8065™) Hepatocellular carcinoma, HT-29 (ATCC, HTB-38™) Colorectal adenocarcinoma, PC-3 (ATCC, CRL-1435™) Prostate adenocarcinoma. The cells were cultured in a cell culture laboratory at the Institute of Experimental Morphology, Pathology and Anthropology with a Museum—Bulgarian Academy of Sciences. They were cultured in Dulbecco’s Modified Eagle’s medium, high glucose (DMEM 4.5 g/L glucose), supplied with 10% fetal bovine serum and antibiotics in usual concentrations in a humidified atmosphere with 5% CO2 at 37.5 °C. In the case of MCF-10A cells, epidermal growth factor, insulin and cholera toxin were added in concentrations corresponding to the cell bank instructions. Cells were plated at a density of 1 × 10^3 cells per well in a 96-well flat-bottomed microplates and allowed to adhere for 24 h before treatment with the test compounds, dissolved in DMSO, and further diluted in culture medium to the final concentrations. A concentration ranges from 5 µM to 4.1 mM was tested over an incubation period of 72 h. Cisplatin (Sigma-Aldrich) was used as a positive control in a concentration range 50 nM to 100 µM. All experiments were performed in triplicates. The MTT-formazan absorption was measured using a microplate reader (TECAN, Sunrise^TM, Groedig/Salzburg, Austria) at 570 nm. Antiproliferative activities were expressed as IC50 values (concentrations required for 50% inhibition of cell growth), calculated using non-linear regression analysis (GraphPad Prizm8 Software). The statistical analysis involved One-way ANOVA followed by Bonferroni’s post hoc test p < 0.05 was accepted as the lowest level of statistical significance.
# [2] = system: HT-29 (colorectal adenocarcinoma); test: MTT antiproliferative assay, HT-29; format: cell-based, human
# Experimental: as §1, §2
# [3] = system: MDA-MB-231 (triple negative human breast carcinoma); test: MTT antiproliferative assay, MDA-MB-231; format: cell-based
# Experimental: as §1, §2
# [4] = system: HeLa (cervical cancer); test: MTT antiproliferative assay, HeLa; format: cell-based, human
# Experimental: as §1, §2
# [5] = system: A549 (lung alveolar adenocarcinoma); test: MTT antiproliferative assay, A549; format: cell-based, human
# Experimental: as §1, §2
# [6] = system: MCF-10A (non-tumorigenic epithelial cells of mammary gland); test: MTT antiproliferative assay, MCF-10A; format: cell-based, human; conditions: MCF-10A (reference line)
# Experimental: as §1, §2
# [7] = system: H1299 (non-small-cell lung carcinoma cells); test: MTT antiproliferative assay, H1299; format: cell-based, human
# Experimental: as §1, §2
# [8] = system: MCF-7 (luminal type A breast carcinoma); test: MTT antiproliferative assay, MCF-7; format: cell-based, human
# Experimental: as §1, §2
# [9] = system: PC3 (prostate adenocarcinoma); test: MTT antiproliferative assay, PC3; format: cell-based, human
# Experimental: as §1, §2
Compound,SI = IC50(MCF-10A)/IC50(tumor cell line) [1],SI = IC50(MCF-10A)/IC50(tumor cell line) [2],SI = IC50(MCF-10A)/IC50(tumor cell line) [3],SI = IC50(MCF-10A)/IC50(tumor cell line) [4],SI = IC50(MCF-10A)/IC50(tumor cell line) [5],SI = IC50(MCF-10A)/IC50(tumor cell line) [6],SI = IC50(MCF-10A)/IC50(tumor cell line) [7],SI = IC50(MCF-10A)/IC50(tumor cell line) [8],SI = IC50(MCF-10A)/IC50(tumor cell line) [9],SI times higher than SI of Cisplatin [2] [times],SI times higher than SI of Cisplatin [5] [times]
COc1ccc(C2=N[C@@H](C#N)[C@@H](c3ccccc3)C2)cc1 (racemic) [cis-4e],0.77,1.39,< 0.12,2.69,1.25,1,0.51,0.24,–,–,–
COc1cc(O)c(C2=N[C@@H](C(N)=O)[C@@H](c3ccc(C)c(F)c3)C2)c(OC)c1 [cis-6m],3.67,6.67,0.22,0.36,3.16,1,0.23,0.46,3.44,–,–
"COc1cc(O)c(C2=N[C@@H](C#N)[C@H](c3ccc(C)c(F)c3)C2)c(OC)c1 (relative stereo) [cis-4m, rel-(2R,3S)-3-(3-fluoro-4-methylphenyl)-5-(2-hydroxy-4,6-dimethoxyphenyl)-3,4-dihydro-2H-pyrrole-2-carbonitrile]",1.45,8.66,10.5,0.75,1.74,–,6.68,0.92,1.47,3,–
Cc1ccc(C2=N[C@@H](C#N)[C@@H](c3ccccc3)C2)cc1 (racemic) [cis-4k],0.44,0.12,0.04,0.61,1.27,1,0.51,0.28,0.35,–,–
N#C[C@@H]1N=C(c2ccccc2)C[C@@H]1c1cccnc1 (racemic) [cis-4h],0.76,1.39,< 0.55,1.03,7.33,1,0.76,1.65,1.19,–,–
COc1cc(O)c(C2=N[C@@H](C#N)[C@H](c3ccc(C)c(F)c3)C2)c(OC)c1 (racemic) [trans-4m],1.78,2.82,0.11,0.07,2.46,1,2.18,0.53,1.79,–,–
"Cc1ccc(C2=N[C@@H](C#N)[C@H](c3ccccc3)C2)cc1 (relative stereo) [trans-4k, rel-(2R,3S)-5-(4-methylphenyl)-3-phenyl-3,4-dihydro-2H-pyrrole-2-carbonitrile]",1.14,1.33,0.58,2.16,15.5,1,0.51,0.32,1.50,–,26
"N.N.[Cl][Pt][Cl] [Cisplatin, reference compound]",1.22,2.84,12.7,1.18,0.60,1,4.62,0.50,6.93,–,–
